{
  "source": "the supplement of paper PMC6143611",
  "note": "Structures can show the parent of a compound that is named as a salt. ± gives the uncertainty stated by the source. Some of the results follow. Plates or batches differ in their baseline, so values are only roughly comparable.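 At 6 dpf, larvae had a heat-shock-induced fluorescent stripe placed in rod outer segments; shedding distance, from stripe to outer segment tip, was measured in confocal stacks, roughly three fish per compound. Controls received 0.2% DMSO vehicle; compounds were flagged for ≥20% change versus same-week control and p < 0.001 (Dunnett test, mixed-effects models).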",
  "data": [
    {"tested_on": "Danio rerio larva rod photoreceptor outer segment", "test": "rod outer segment shedding distance Ds, difference from same-week DMSO control mean; higher = less outer segment shedding", "conditions": "20 µM; treatment time: 4 days (6-10 dpf)", "units": {"rod outer segment shedding distance Ds": "um"}, "values": [
      {"smiles": "O=C(CCc1ccc(O)cc1)c1c(O)cc(O)cc1O", "note": "[Phloretin]", "rod outer segment shedding distance Ds": "-3.01 ± 1.1"},
      {"smiles": "Cc1cn([C@H]2C=C[C@@H](CO)O2)c(=O)[nH]c1=O", "note": "[Stavudine (d4T)]", "rod outer segment shedding distance Ds": "-0.83 ± 0.28"},
      {"smiles": "CS(=O)(=O)c1ccc(C2=C(c3ccccc3)C(=O)OC2)cc1", "note": "[Rofecoxib]", "rod outer segment shedding distance Ds": "0.13 ± 0.14"},
      {"smiles": "Oc1cccc(-c2nc(N3CCOCC3)c3oc4ncccc4c3n2)c1", "rod outer segment shedding distance Ds": "-0.83 ± 0.23"},
      {"smiles": "O=C(/C=C/c1ccccc1)NC(NC(=S)Nc1cccc2cccnc12)C(Cl)(Cl)Cl", "note": "(stereo not given) [Salubrinal]", "rod outer segment shedding distance Ds": "0.27 ± 0.16"},
      {"smiles": "COc1cc([C@@H]2c3cc4c(cc3[C@@H](O[C@@H]3O[C@@H]5CO[C@@H](C)O[C@H]5[C@H](O)[C@H]3O)[C@H]3COC(=O)[C@H]23)OCO4)cc(OC)c1O", "note": "[Etoposide]", "rod outer segment shedding distance Ds": "-0.74 ± 0.21"},
      {"smiles": "C[N+](C)(C)CC(O)CC(=O)[O-]", "note": "(racemic) [DL-Carnitine HCl]", "rod outer segment shedding distance Ds": "-0.68 ± 0.35"},
      {"smiles": "CO[C@H]1/C=C/O[C@@]2(C)Oc3c(C)c(O)c4c(O)c(c(/C=N/N5CCN(C6CCCC6)CC5)c(O)c4c3C2=O)NC(=O)/C(C)=C\\C=C\\[C@H](C)[C@H](O)[C@@H](C)[C@@H](O)[C@@H](C)[C@H](OC(C)=O)[C@@H]1C", "note": "[Rifapentine]", "rod outer segment shedding distance Ds": "-0.53 ± 0.16"},
      {"smiles": "COc1cc2nc(N(C)CCCNC(=O)C3CCCO3)nc(N)c2cc1OC", "note": "(stereo not given) [Alfuzosin HCl]", "rod outer segment shedding distance Ds": "-0.34 ± 0.2"},
      {"smiles": "CN(C)C(=O)COC(=O)Cc1ccc(OC(=O)c2ccc(NC(=N)N)cc2)cc1", "note": "[Camostat Mesilate]", "rod outer segment shedding distance Ds": "-0.31 ± 0.11"},
      {"smiles": "O=c1ncn2nc(Sc3ccc(F)cc3F)ccc2c1-c1c(Cl)cccc1Cl", "rod outer segment shedding distance Ds": "-0.58 ± 0.21"},
      {"smiles": "COc1ccc(-c2nc3cc(C4=NNC(=O)CC4C)ccc3[nH]2)cc1", "note": "(stereo not given) [Pimobendan]", "rod outer segment shedding distance Ds": "-0.53 ± 0.19"},
      {"smiles": "CCN(c1cc(-c2ccc(CN3CCOCC3)cc2)cc(C(=O)NCc2c(C)cc(C)[nH]c2=O)c1C)C1CCOCC1", "rod outer segment shedding distance Ds": "0.41 ± 0.29"},
      {"smiles": "COc1ccc(COc2cc3oc(=O)c4cc(C(C)O)ccc4c3cc2OC)cc1", "note": "(stereo not given) [Palomid 529 (P529)]", "rod outer segment shedding distance Ds": "-0.49 ± 0.36"},
      {"smiles": "C[C@@H](O)[C@H]1C(=O)N2C(C(=O)O)=C(S[C@@H]3CN[C@H](C(=O)N(C)C)C3)[C@H](C)[C@H]12", "note": "[Meropenem]", "rod outer segment shedding distance Ds": "-0.78 ± 0.24"},
      {"smiles": "CCOC(=O)N1c2ccc(C(F)(F)F)cc2[C@@H](N(Cc2cc(C(F)(F)F)cc(C(F)(F)F)c2)C(=O)OC)C[C@H]1CC", "note": "[Torcetrapib]", "rod outer segment shedding distance Ds": "0.1 ± 0.13"},
      {"smiles": "CNC(=O)c1c(F)cccc1Nc1nc(Nc2cc3c(cc2OC)CCN3C(=O)CN(C)C)nc2[nH]ccc12", "rod outer segment shedding distance Ds": "-0.11 ± 0.19"},
      {"smiles": "Cc1cnc(Nc2ccc(OCCN3CCCC3)cc2)nc1Nc1cccc(S(=O)(=O)NC(C)(C)C)c1", "rod outer segment shedding distance Ds": "-0.52 ± 0.1"},
      {"smiles": "Cc1c(Nc2ncccc2C(=O)O)cccc1C(F)(F)F", "note": "[Flunixin Meglumin]", "rod outer segment shedding distance Ds": "-0.4 ± 0.25"},
      {"smiles": "Nc1cccc2c1CN(C1CCC(=O)NC1=O)C2=O", "note": "(stereo not given) [Lenalidomide (CC-5013)]", "rod outer segment shedding distance Ds": "-1.68 ± 0.28"},
      {"smiles": "CC(=O)N[C@@H](CS)C(=O)O", "note": "[Acetylcysteine]", "rod outer segment shedding distance Ds": "-0.1 ± 0.16"},
      {"smiles": "Cc1ccc(Nc2c(F)cccc2Cl)c(CC(=O)O)c1", "note": "[Lumiracoxib]", "rod outer segment shedding distance Ds": "-0.18 ± 0.12"},
      {"smiles": "C[C@]12CCC3=C4CCC(=O)C=C4CC[C@H]3[C@@H]1CC[C@@]2(O)CC#N", "note": "[Dienogest]", "rod outer segment shedding distance Ds": "-0.86 ± 0.21"},
      {"smiles": "CC(C[N+](C)(C)C)OC(N)=O", "note": "(stereo not given) [Bethanechol chloride]", "rod outer segment shedding distance Ds": "-0.22 ± 0.38"},
      {"smiles": "CC(C)c1nc(N(C)S(C)(=O)=O)nc(-c2ccc(F)cc2)c1/C=C/[C@@H](O)C[C@@H](O)CC(=O)O", "note": "[Rosuvastatin Calcium]", "rod outer segment shedding distance Ds": "0.1 ± 0.27"}
    ]}
  ]
}
